Experimental data: article PMC9800333, “Determinants of receptor tyrosine phosphatase homophilic adhesion: Structural comparison of PTPRK and PTPRM extracellular domains” (The Journal of Biological Chemistry, 2022)
These are yes or no findings as the source states them, for the method shown.

Tests used:
[1] = biological target: full-length PTPRK extracellular domain (human) (UniProt Q15262); test: SEC-SAXS-MALS; pH 6: S200 Increase 5/150 in 50 mM Mes, pH 6.0, 250 mM NaCl, 3% (v/v) glycerol; PTPRK-ECD 2.3 mg/ml, PTPRM-ECD 7.0 mg/ml injected; both purified
[2] = biological target: full-length PTPRK extracellular domain (human) (UniProt Q15262); test: SEC-MALS; pH 6: peak fractions from pH 8 buffer exchanged into 50 mM Mes, pH 6, 250 mM NaCl; Superdex 200 Increase 10/300 GL; protein conjugate analysis for glycans; both purified

B1: full-length PTPRK extracellular domain (domain or fragment, human, UniProt Q15262-3 28-752, looked up)
chain: QGQFSAGGCTFDDGPGACDYHQDLYDDFEWVHVSAQEPHYLPPEMPQGSYMIVDSSDHDPGEKARLQLPTMKENDTHCIDFSYLLYSQKGLNPGTLNILVRVNKGPLANPIWNVTGFTGRDWLRAELAVSTFWPNEYQVIFEAEVSGGRSGYIAIDDIQVLSYPCDKSPHFLRLGDVEVNAGQNATFQCIATGRDAVHNKLWLQRRNGEDIPVAQTKNINHRRFAASFRLQEVTKTDQDLYRCVTQSERGSGVSNFAQLIVREPPRPIAPPQLLGVGPTYLLIQLNANSIIGDGPIILKEVEYRMTSGSWTETHAVNAPTYKLWHLDPDTEYEIRVLLTRPGEGGTGLPGPPLITRTKCAEPMRTPKTLKIAEIQARRIAVDWESLGYNITRCHTFNVTICYHYFRGHNESKADCLDMDPKAPQHVVNHLPPYTNVSLKMILTNPEGRKESEETIIQTDEDVPGPVPVKSLQGTSFENKIFLNWKEPLDPNGIITQYEISYSSIRSFDPAVPVAGPPQTVSNLWNSTHHVFMHLHPGTTYQFFIRASTVKGFGPATAINVTTNISAPTLPDYEGVDASLNETATTITVLLRPAQAKGAPISAYQIVVEELHPHRTKREAGAMECYQVPVTYQNAMSGGAPYYFAAELPPGNLPEPAPFTVGDNRTYQGFWNPPLAPRKGYNIYFQAMSSVEKETKTQCVRIATKAAATEEPEVIPDPAKQTDRVV
modifications: native N-linked glycans (no deglycosylation)
notes: human PTPRK, full extracellular domain (MAM, Ig, FN1-4), residues 28-752; numbers count on: UniProt Q15262-3; Cloned into pHLSec (AgeI/KpnI) in frame with the vector's N-terminal secretion signal; The C-terminal His6 tag was included in the SAXS models; also called PTPRK-ECD; PTPRK full ECD; not shown: Lys-His6, C-terminal, kept
[1]
  binding: no binding (condition: at pH 6)
[2]
  binding: no binding (condition: at pH 6)
